# Primary screen of a compound library

Measurements from “University of Dundee, Small-Polar-MMV Screening Library” (2021), ChEMBL document CHEMBL3988442.

Mtb cholesterol medium: 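Phenotypic screen: M. tuberculosis growth, cholesterol and DPPC medium, 4 days; the read-out is not stated. Concentration: 50 µM. The record gives no direction; compounds that gave an IC50 in retests scored well above the rest, so higher reads as more growth inhibition. Size under these conditions: about 69,000 compounds, about 370 of them at 50% or above in at least one test.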
Mtb glucose medium: 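Whole-cell growth test on Mycobacterium tuberculosis, read after 3 days in glucose-containing 7H9 medium; the read-out is not stated. Concentration: 50 µM. Direction is inferred from retests: higher values go with more growth inhibition. About 69,000 compounds were tested under these conditions; 1.1% (about 760) showed 50% or more at least once.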

The filed quantity is “Percent Effect” (%).
The record does not define 0% and 100%; most values in the screen are far below 50% and negative numbers occur (in some assays of this library far below -100).
This is an unselected part of the compounds tested.
Two or more numbers in one place are separate tests of the same structure; such repeats can differ widely.

{"compound": "Cc1cccc(C(=O)NCCCN2CCN(c3ccccc3)CC2)c1", "Mtb cholesterol medium": -0.6496, "Mtb glucose medium": 6.919}
{"compound": "Cc1noc(C)c1CN(C)Cn1nccc1-c1cccnc1", "Mtb cholesterol medium": 13.29, "Mtb glucose medium": -32.14}
{"compound": "c1coc(CNCC2Cn3nncc3CO2)c1", "stereo": "centres unmarked", "Mtb cholesterol medium": 11.75, "Mtb glucose medium": 26.79}
{"compound": "CC(NC(=O)CCCc1nc(C(C)(C)C)no1)c1ccccn1", "stereo": "centres unmarked", "Mtb cholesterol medium": -19.5, "Mtb glucose medium": -12.27}
{"compound": "CCN(CC)c1ccc(NS(=O)(=O)c2cnn(C)c2)cn1", "Mtb cholesterol medium": -2.081, "Mtb glucose medium": 7.269}
{"compound": "O=C(NCc1nncn1C1CCCCC1)C1COc2ccccc2C1", "stereo": "centres unmarked", "Mtb cholesterol medium": -4.562, "Mtb glucose medium": 21.71}
{"compound": "CC(C)CNC(=O)C1(Cc2ccccc2-c2cccs2)CCNC1", "stereo": "centres unmarked", "Mtb cholesterol medium": 0.5921, "Mtb glucose medium": 34.19}
{"compound": "Cc1ccc2c(c1)C1(CC(=O)Nc3[nH]ncc31)C(=O)N2C", "stereo": "centres unmarked", "Mtb cholesterol medium": -7.506, "Mtb glucose medium": 6.679}
{"compound": "O=C(O)c1ccccc1-c1ccc(CN2CCC(CO)CC2)cn1", "Mtb cholesterol medium": -15.81, "Mtb glucose medium": -10.41}
{"compound": "COc1ccc(C(=O)Nc2cc(CC(C)C)nn2C)cc1", "Mtb cholesterol medium": 11.99, "Mtb glucose medium": 48.32}
{"compound": "CC[C@H]1CN(C(=O)c2cnc(CN3CCCC3)s2)CC[C@@]1(C)O", "Mtb cholesterol medium": -1.672, "Mtb glucose medium": "-9.485 and 13.11"}
{"compound": "CC(C)c1cc(CNC(=O)NCc2cccc(N3CC=CC3)c2)on1", "Mtb cholesterol medium": "0.5537 and 11.96", "Mtb glucose medium": -14.18}
{"compound": "CC(C)N1CCc2ncn(C)c2C1C(=O)NCCN1CCCC1", "stereo": "centres unmarked", "Mtb cholesterol medium": 1.446, "Mtb glucose medium": "-1.745 and -8.443"}
{"compound": "CCCn1cc(NC(=O)NCC2CCS(=O)(=O)C2)nn1", "stereo": "centres unmarked", "Mtb cholesterol medium": 1.926, "Mtb glucose medium": "8.192 and 11.88"}
{"compound": "CN(C)S(=O)(=O)N1CCN(C(=O)OC(C)(C)C)CC12CCCCC2", "Mtb cholesterol medium": -13.17, "Mtb glucose medium": 10.71}
{"compound": "COCC1CCN(C(=O)c2cn(Cc3ccccc3C(F)(F)F)nn2)C1", "stereo": "centres unmarked", "Mtb cholesterol medium": -7.324, "Mtb glucose medium": -15.16}
{"compound": "O=C(O)C(F)(F)F.O=C(O)C(F)(F)F.[H][C@]12CC(Cn3cccn3)N(C)[C@@]1([H])CCN(C(=O)c1cccc(C#N)c1)C2", "stereo": "some centres unmarked", "Mtb cholesterol medium": 6.793, "Mtb glucose medium": 10.36}
{"compound": "[H][C@]12CCC[C@@]1(COCC1CCOCC1)CN(Cc1nccs1)C2", "Mtb cholesterol medium": 22.38, "Mtb glucose medium": "13.7 and 4.971"}
{"compound": "O=C(O)C(F)(F)F.[H][C@@]12CN(C)CCO[C@]1([H])CN(C(=O)COc1ccc(C)cc1)C2", "Mtb cholesterol medium": 14.76, "Mtb glucose medium": "-1.909 and 0.7685"}
{"compound": "CNC(=O)C1Cn2ccnc2C2(CCN(Cc3nccs3)CC2)O1.O=C(O)C(F)(F)F.O=C(O)C(F)(F)F", "stereo": "centres unmarked", "Mtb cholesterol medium": "-7.922 and -19.44", "Mtb glucose medium": -47.64}
{"compound": "CC(CCc1ncnn1Cc1cccc(Cl)c1)N1CCCC1", "stereo": "centres unmarked", "Mtb cholesterol medium": -9.044, "Mtb glucose medium": -3.336}
{"compound": "c1cnc(NCc2noc3c2CN(C2CCOC2)CC3)nc1", "stereo": "centres unmarked", "Mtb cholesterol medium": 0.2073, "Mtb glucose medium": "0.09162 and -0.2509"}
{"compound": "CCCn1nnnc1CSc1nccn1CC", "Mtb cholesterol medium": 13.14, "Mtb glucose medium": 20.26}
{"compound": "Cc1cnn(CC2CCCCN2C(=O)c2cccnc2N(C)C)c1", "stereo": "centres unmarked", "Mtb cholesterol medium": -19.36, "Mtb glucose medium": 0.3482}

The last 2 entries again:

compound,Mtb cholesterol medium,Mtb glucose medium
CCCn1nnnc1CSc1nccn1CC,13.14%,20.26%
Cc1cnn(CC2CCCCN2C(=O)c2cccnc2N(C)C)c1 (centres unmarked),-19.36%,0.3482%